The subject of the series is MCF7 cell line. Nature of the series: Pro-apoptotic activity, M30 Cytodeath ELISA (CK18-Asp396). Format: cell-based, human. The following applies: MCF7 monolayers, 24 h. How it is done: The pro-apoptotic activity is measured as fold increase of the spontaneous apoptosis occurred in the DMSO treated negative control ± standard deviation.
The cutoff was determined as fourfold increase in the apoptosis signal of the negative control.
The accumulation of CK18-Asp396 in treated MCF7 cell cultures was quantified using the M-30 Cytodeath® ELISA kit according to the manufacturer’s instructions. Briefly, the MCF7 cell line monolayers were exposed to the chemical compounds at a concentration of 50 µM. Following 24 h of incubation, the culture medium was supplemented with 0.1% NP40. Subsequently, aliquots of 25 µL from each well, containing CK18 released into the medium from attached and floating cells and cell fragments, were subjected to the ELISA assay. Cleaved CK18 levels were determined by measuring the absorbance at 450 nm[46].
In general terms: ELISA stands for enzyme-linked immunosorbent assay.

Data on seven compounds can be found in article PMC12663132, “Assessment of cytotoxicity of some synthetic compounds against breast carcinoma spheroids with subsequent analysis of pro-apoptotic and gene expression” (Scientific Reports, 2025).

Regarding `Cc1cccc(C)c1NC(=O)COC(=S)c1sc2ccccc2c1Cl` [A07, 2-(2,6-dimethylanilino)-2-oxoethyl 3-chlorobenzo[b] thiophene-2-carbothioate], for the setting “50 µM”, the “OD 450” value turned out to be 0.3289. On to `Nc1ccccc1SCC=CCSc1ccccc1N` [C02, 2-({4-[(2-aminophenyl)thio]but-2-enyl}thio)aniline], for which the “OD 450” value (50 µM) amounted to 0.3635. Regarding `O=C(NCCc1c[nH]c2ccccc12)Nc1ccc(Cl)cc1` [D08, N-(4-chlorophenyl)-N'-[2-(1H-indol-3-yl)ethyl]urea], the “OD 450” value (50 µM) was 0.1933.

On to `CCOC(=O)c1c(NS(=O)(=O)c2cccc3nsnc23)sc(C)c1C` [F03, ethyl 2-[(2,1,3-benzothiadiazol-4-ylsulfonyl)amino]-4,5-dimethylthiophene-3-carboxylate], for which the “OD 450” value (50 µM) came to 0.439.

With `COc1ccc(OCCC(=O)NNC(=S)Nc2cc(Cl)ccc2Cl)cc1` [F06, N1-(2,5-dichlorophenyl)-2-[3-(4-methoxyphenoxy)propanoyl]hydrazine-1-carbothioamide], the “OD 450” value (50 µM) stood at 0.5655.

For `COC(=O)c1cc(C=C(C#N)C#N)c(OC)cc1OC` [H09, methyl 5-(2,2-dicyanovinyl)-2,4-dimethoxybenzoate], the “OD 450” value (50 µM) came to 0.2311. For the compound `N.N.[Cl][Pt][Cl]` [cisplatin, reference compound], the “OD 450” value (cisplatin 40 µM) was found to be 0.5231.
